From publication PMC10514960

How the values were obtained:
[1] = system: LlC3H18 (Lilium longiflorum 'White heaven'); test: EMSA; settings: EMSA: 20 min at room temperature, 6% native gel (40:1) at 4 °C, LightShift Chemiluminescent EMSA kit, salt and pH not stated, recombinant protein, protein details: GST (pGEX-4T-1)
[2] = target: T1, LlMYB305 (UniProt A0A8U0AUG0); test: EMSA; settings: EMSA: 20 min at room temperature, 6% native gel (40:1) at 4 °C, LightShift Chemiluminescent EMSA kit; salt and pH not stated; recombinant protein; protein details: GST (pGEX-4T-1); label: 5' biotin
T1 sequence (looked up, limits assumed): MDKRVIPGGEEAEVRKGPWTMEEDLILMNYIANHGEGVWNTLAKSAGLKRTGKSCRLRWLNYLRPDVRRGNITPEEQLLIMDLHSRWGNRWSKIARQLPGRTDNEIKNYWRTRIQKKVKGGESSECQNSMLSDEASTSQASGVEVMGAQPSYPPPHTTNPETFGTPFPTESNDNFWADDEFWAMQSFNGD

Sequence: CAATTTCGCCTCCTTCTCCGAAGCAACAAATATCCATTTCATACGTGAGT (double strand) [ProLlWRKY33-probe]
- binding result ([1]; label: 5' biotin): binds

Sequence: GTCTATTCAGGAGGCAGTTGATATTTAGCTGATATTTTTC (double strand) [ProLlC3H18-probe2]
- binding result [2]: binds

Sequence: UUAUUUAUUAUUUAUUUAUUAUUUAUUUAUUAUUUAUUUAUUA [ARE RNA]
- binding result ([1]; label: label (5' biotin per EMSA Methods), letters put together from the description): binds

Sequence: ATAGGGTACCTAATCTGAAAATGAGCACATGGGGTGGTTGACTCATCAAA (double strand) [ProLlC3H18-probe1]
- binding result [2]: binds

The exact form of at least one protein or probe is not confirmed. For some of these results: Where a protein sequence is shown, tags need not be part of it.
